Experimental data published in PubChem BioAssay AID1259415 (National Center for Advancing Translational Sciences (NCATS), 2018).
The whole screen tested about 410,000 compounds, of which about 18,000 (4.4%) were called active. Inconclusive results, whose numbers are uncertain, are shown with a selection of clear calls. Cut-off read from the data, not from the text of the source: active = activity change below about -60%; inconclusive = no clear call, values can overlap the other calls; inactive = above about -39%.
% is set by controls: 0 for no effect and ±100 for the full control effect.

Assay: qHTS Assay for inhibitors of the human cytomegalovirus (HCMV)
Conditions: HFF cells, HCMV-luciferase reporter, 72 h; at 57.5 µM; active compounds read low
Summary of the method: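 Human foreskin fibroblasts infected with luciferase-reporter HCMV at MOI 1 PFU/cell, compounds at two doses. Luciferase measured 72 h post infection; normalized to buffer-only basal and Salinomycin (10uM) controls.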
With `COCCCN1C(=O)c2ccc(C(=O)Nc3ccc(C)cc3C)cc2C1=O` the activity change, negative = inhibition was active: -92.4%.
In the case of `CC(C)(C)NCC(=Cc1ccccc1)C(=O)c1ccccc1`, the activity change, negative = inhibition was active: -97.6%.
For `CN(CC(=O)NCc1ccc(F)cc1)S(=O)(=O)c1ccc2[nH]c3c(c2c1)CCCC3`, the activity change, negative = inhibition was inconclusive: -47.3%.
With `CCCN(C(=O)C1CCCN(c2ncnc3c2nc2n3CCCCC2)C1)c1ccc(F)cc1` (stereo not drawn) the activity change, negative = inhibition was inconclusive: -47.3%.
For `O=C1CN(C(=O)CSc2nc3ccccc3c(=O)n2Cc2ccc(F)cc2)c2ccccc2N1`, the activity change, negative = inhibition was active: -63.5%.
In the case of `Cc1nnc2sc(SCC(=O)Nc3cccc(Cl)c3)nn2c1=O`, the activity change, negative = inhibition was inactive: 1.74%.
In the case of `COc1cccc(N2C(N)=NC(N)=NC2(C)C)c1`, the activity change, negative = inhibition was active: -66.7%.
For `CCC1(CC)N([O-])C(C)=C(c2ccccc2)[N+]1=O`, the activity change, negative = inhibition was inactive: -6.71%.
In the case of `CCC1CCc2sc(C(=O)N(C)CC(=O)Nc3ccc(OC)cc3)cc2C1` (stereo not drawn), the activity change, negative = inhibition was inconclusive: -55.8%.
With `Cc1sc(NC(=O)c2cc3ccccc3oc2=O)c(C(=O)OC(C)C)c1-c1ccccc1` the activity change, negative = inhibition was inconclusive: -40.6%.
With `COC(=O)c1cccc(NC(=O)Nc2ccc(Cl)c(Cl)c2)c1` the activity change, negative = inhibition was active: -101%.
With `CC1CCC(C(C)C)C(OC(=O)CSc2n[nH]c(=O)[nH]c2=O)C1` (stereo not drawn) the activity change, negative = inhibition was inactive: -29.6%.
In the case of `O=C(CCl)Nc1cn(-c2ccccc2)nc1-c1ccc(F)cc1`, the activity change, negative = inhibition was active: -72.2%.
For `Cn1c(SCc2ccccc2)nc(N)c(N=O)c1=O`, the activity change, negative = inhibition was inactive: 112%.
In the case of `CCOC(=O)C1=CCN(S(=O)(=O)c2ccccc2C(=O)OC)C1c1ccc(Cl)cc1` (stereo not drawn), the activity change, negative = inhibition was inactive: -23.9%.
With `COc1cccc(C2C3=C(CC(C)(C)CC3=O)Nc3n[nH]c(C)c32)c1` (stereo not drawn) the activity change, negative = inhibition was inconclusive: -57.2%.
In the case of `CC(C)(C)NC(=S)Nc1ccc(Br)cc1`, the activity change, negative = inhibition was inconclusive: -47.3%.
For `Cc1cc(C(=O)Nc2cccc(S(=O)(=O)N3CCCC3)c2)c2ccccc2n1`, the activity change, negative = inhibition was inactive: -14.6%.
In the case of `CC(C)NC(=O)COC(=O)CNC(=O)c1cc(Cl)cc([N+](=O)[O-])c1`, the activity change, negative = inhibition was inactive: -10.1%.
In the case of `CCn1cc(S(=O)(=O)c2cccc(Cl)c2)c(=O)c2cc(F)c(N3CCN(C)CC3)cc21`, the activity change, negative = inhibition was inactive: 31.7%.
In the case of `COc1ccc(/C=C/C(=O)c2ccc3c4c(cccc24)CC3)cc1OC`, the activity change, negative = inhibition was inconclusive: -56.3%.
With `COc1ccc(CCNC(=O)CCNC(=O)N2CC(=O)Nc3ccccc32)cc1OC` the activity change, negative = inhibition was inconclusive: -46.4%.
In the case of `N=c1c2c(-c3ccccc3)c(-c3ccccc3)n(Cc3ccccc3)c2ncn1CCCn1ccnc1`, the activity change, negative = inhibition was active: -74%.
For `COC(=O)CCC(=O)NN1C(=O)c2ccccc2C1=O`, the activity change, negative = inhibition was active: -68.2%.
For `COc1ccc(OC)c(CNC(=O)c2ccc(NC(=O)c3nsc4ccccc34)cc2)c1`, the activity change, negative = inhibition was inactive: 73.8%.
With `CNC(=O)c1ccsc1NC(=O)CCS(=O)(=O)c1ccccc1` the activity change, negative = inhibition was inconclusive: -43.1%.
In the case of `COc1ccc2c(c1)CCc1c(C(=O)NCc3ccc(Cl)cc3)noc1-2`, the activity change, negative = inhibition was inactive: 18.8%.
In the case of `O=C(Nc1nc(-c2ccc3ccccc3c2)cs1)c1ccc(N2C(=O)CCC2=O)cc1`, the activity change, negative = inhibition was active: -70.7%.
For `Cc1cc(NC(=O)CSc2nc3ccccc3c(=O)n2CCCC(=O)NCc2ccco2)n[nH]1`, the activity change, negative = inhibition was inconclusive: -55.2%.
For `C=CCN(CC=C)C(=O)c1ccc2nc(Cc3ccc(OC)c(OC)c3)oc2c1`, the activity change, negative = inhibition was active: -62%.
For `CC1(C)Cc2c(C#N)c(N3CCN(C(=O)c4ccccc4)CC3)nc(-c3ccco3)c2CS1`, the activity change, negative = inhibition was inconclusive: -52.3%.
In the case of `O=C(Nc1cccnc1)c1ccc(Cl)c(S(=O)(=O)N2CCCC2)c1`, the activity change, negative = inhibition was inconclusive: -44.2%.
In the case of `COc1ccc(CN2C[C@H](Cc3ccccc3)[C@@H](CC(=O)Nc3ccccc3)C2=O)cc1`, the activity change, negative = inhibition was inconclusive: -43.4%.
In the case of `Cc1ccc(C(=O)NCC(=O)NCC(=O)OCC(=O)c2ccc([N+](=O)[O-])cc2)cc1`, the activity change, negative = inhibition was inconclusive: -54.3%.
In the case of `CCOC(=O)c1c(S(=O)(=O)N2CCC(C(=O)N3CCN(c4ccccc4F)CC3)CC2)c(C)n(C)c1C`, the activity change, negative = inhibition was inactive: -8.66%.
In the case of `COc1ncnc2c1sc1nc(-c3ccccc3)c3c(c12)CCCC3`, the activity change, negative = inhibition was inconclusive: -53.6%.
With `O=C(CCCOc1ccccc1)Nc1cc(S(=O)(=O)N2CCOCC2)ccc1N1CCOCC1` the activity change, negative = inhibition was inactive: -14.7%.
In the case of `CC(O)CN(CC(C)O)c1ccc2c(c1)Cc1cc([N+](=O)[O-])ccc1-2` (stereo not drawn), the activity change, negative = inhibition was inactive: 158%.
For `Cc1cc(NS(=O)(=O)c2ccc(NC(=O)c3cc4cc(Br)ccc4oc3=O)cc2)no1`, the activity change, negative = inhibition was inconclusive: -47.2%.
In the case of `O=S(=O)(c1ccc(OCC(O)CNC23CC4CC(CC(C4)C2)C3)c(Cl)c1)N1CCOCC1` (stereo not drawn), the activity change, negative = inhibition was inactive: -12.1%.
With `Cc1cc(C)cc(-n2c(C)cc(/C=C3\C(=O)NC(=O)N(C)C3=O)c2C)c1` the activity change, negative = inhibition was inconclusive: -59.6%.
With `O=C(CNCC1CCCCC1)Nc1ccccc1N1CCCCC1` the activity change, negative = inhibition was inconclusive: -47.4%.
In the case of `O=C(/C=C/c1ccccc1)Nc1ccc2c(c1)C(=O)NC2=O`, the activity change, negative = inhibition was inconclusive: -41.5%.
